Values quoted from earlier work in PMC3438292 (Journal of medicinal chemistry, 2010).

Test system: 5-HT2B receptor
Settings: cited from earlier work

## CCN(CC)C(=O)N[C@H]1C=C2c3cccc4[nH]cc(c34)C[C@H]2N(C)C1 [lisuride]
  activation of 5-HT2B receptors: do not activate
